# From the supplement of paper PMC8256030
# Several values for one entry are separate records, joined by “and”; a condition that tells them apart may be missing. Equal entries are not always repeated. Structures can show the parent of a compound that is named as a salt. The list shows a part of the results. This data set is noisy: repeats of one test often differ as much as different tests do.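 HEK293T cells were given each compound shortly before transfection with a reporter in which red mCherry is followed by the SARS-CoV-2 frameshift element and then GFP in the −1 frame, so GFP appears only after frameshifting.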
# System: HEK293T
# Assay: percent viability (nuclei count) relative to control; higher = more viable cells
# Conditions: 10 µM; 24 h
row,Structure (SMILES),percent viability
1,O=C(O)[C@@H](c1ccc(OCc2ccc3ccccc3n2)cc1)C1CCCC1 [veliflapon],142%
2,Nc1nc(=O)c(Br)c(-c2ccccc2)[nH]1 [bropirimine],239%
3,CCC(C)CCCCC(=O)NCC[C@@H]1NC(=O)[C@H](CC(C)C)NC(=O)[C@H](CCN)NC(=O)[C@H](CC(C)C)NC(=O)[C@H](CCN)NC(=O)[C@H](CCN)NC(=O)[C@H](CCN)NC(=O)[C@H]([C@@H](C)O)NC1=O (stereo not given in full) [colistimethate sodium],186%
4,NCc1c[nH]c(=S)n1[C@H]1CCc2c(F)cc(F)cc2C1 [nepicastat],326%
5,c1ccc([C@H]2CN3CCSC3=N2)cc1 [levamisole],211%
6,CCOC(=O)C1=C(C)NC(C)=C(C(=O)OC)C1c1cccc(Cl)c1Cl (stereo not given) [felodipine],91.6% and 257%
7,C=CCOc1ccc(CC(=O)O)cc1Cl [alclofenac],161%
8,CS(=O)(=O)c1ccc([C@@H](O)[C@@H](CF)NC(=O)C(Cl)Cl)cc1,255%
9,NCC1CC(=O)N(Cc2ccccc2)C1 (stereo not given) [nebracetam],306%
10,c1ccc2c(SC3=NCCN3)c[nH]c2c1 [tinazoline],269%
11,CC(=O)O[C@H]1C(=O)[C@@]2(C)[C@H]([C@H](OC(=O)c3ccccc3)[C@]3(O)C[C@H](OC(=O)[C@H](O)[C@@H](NC(=O)c4ccccc4)c4ccccc4)C(C)=C1C3(C)C)[C@]1(OC(C)=O)CO[C@@H]1C[C@@H]2O,22.2%
12,CO/N=C(\C(=O)N[C@@H]1C(=O)N2C(C(=O)O)=C(CSc3nnnn3C)CS[C@H]12)c1csc(N)n1 [Cefmenoxime],231%
13,CCCc1c2c(c(O)c3c(=O)cc(C(=O)O)oc13)CCCC2 [proxicromil],174%
14,CN(C)[C@@H]1C(=O)C(C(=O)NCN2CCCC2)=C(O)[C@@]2(O)C(=O)C3=C(O)c4c(O)cccc4[C@@](C)(O)[C@H]3C[C@@H]12 [Rolitetracycline],339%
15,Oc1ccc(CCNCCCCCCNCCc2ccccc2)cc1O [dopexamine],168%
16,CC(C(=O)O)c1ccc2c(c1)Cc1cccnc1O2 (stereo not given) [pranoprofen],222% and 133%
17,Cc1cc2nc3c(=O)[nH]c(=O)nc-3n(C[C@H](O)[C@H](O)[C@H](O)COP(=O)(O)O)c2cc1C,142%
18,CN1CCN(C2=Nc3cc(Cl)ccc3Nc3ccccc32)CC1 [clozapine],250%
19,O=C(O)c1cc(-c2ccc(F)cc2F)ccc1O [diflunisal],209% and 166%
20,C[C@@H](O)[C@H]1C(=O)N2C(C(=O)O)=C(S[C@@H]3CN[C@H](CNS(N)(=O)=O)C3)[C@H](C)[C@H]12 [doripenem],209%

# Sorted by molar mass (falling): 3 of the compounds above
row,Structure (SMILES),percent viability
12,CO/N=C(\C(=O)N[C@@H]1C(=O)N2C(C(=O)O)=C(CSc3nnnn3C)CS[C@H]12)c1csc(N)n1 [Cefmenoxime],231%
1,O=C(O)[C@@H](c1ccc(OCc2ccc3ccccc3n2)cc1)C1CCCC1 [veliflapon],142%
13,CCCc1c2c(c(O)c3c(=O)cc(C(=O)O)oc13)CCCC2 [proxicromil],174%

# (continued)

row,Structure (SMILES),percent viability
1,N[C@@H](Cc1ccccc1)C(=O)O [phenylalanine],116%
2,FC(F)(F)C(Cl)Br (stereo not given) [halothane],132%
3,Nc1ccc(C(=O)OCC(O)CO)cc1 (stereo not given) [lisadimate],141%
4,NC(=O)c1ccc(F)c2c1C[C@@H](N(C1CCC1)C1CCC1)CO2 [robalzotan],116%
5,C/C=C(/C)C(=O)O[C@H]1[C@H](OC(C)=O)[C@@]2(CO)C(CC1(C)C)C1=CCC3[C@@]4(C)CCC(O[C@@H]5O[C@H](C(=O)O)[C@@H](O[C@@H]6O[C@H](CO)[C@@H](O)[C@H](O)[C@H]6O)[C@H](O)[C@H]5O[C@@H]5O[C@H](CO)[C@@H](O)[C@H](O)[C@H]5O)[C@](C)(CO)C4CC[C@@]3(C)[C@]1(C)C[C@H]2O.C/C=C(\C)C(=O)O[C@H]1[C@H](OC(C)=O)[C@@]2(CO)C(CC1(C)C)C1=CCC3[C@@]4(C)CCC(O[C@@H]5O[C@H](C(=O)O)[C@@H](O[C@@H]6O[C@H](CO)[C@@H](O)[C@H](O)[C@H]6O)[C@H](O)[C@H]5O[C@@H]5O[C@H](CO)[C@@H](O)[C@H](O)[C@H]5O)[C@](C)(CO)C4CC[C@@]3(C)[C@]1(C)C[C@H]2O (stereo not given in full),134%
6,CCc1oc2ccccc2c1C(=O)c1cc(I)c(O)c(I)c1 [benziodarone],43.5%
7,CSc1ccc(C(=O)c2[nH]c(=O)[nH]c2C)cc1 [enoximone],216%
8,CC1(C)S[C@@H]2[C@H](NC(=O)Cc3ccccc3)C(=O)N2[C@H]1C(=O)O,131%
9,Cc1cc(NS(=O)(=O)c2ccc(N)cc2)no1 [sulfamethoxazole],160%
10,Cc1cccc(C)c1NC(=O)c1ccc(N)cc1 [ameltolide],131%
11,CC(C)[C@H](N)C(=O)OCC(CO)OCn1cnc2c(=O)nc(N)[nH]c21 (stereo not given in full),376%
12,Cc1cccc(Nc2ccncc2S(=O)(=O)NC(=O)NC(C)C)c1 [torasemide],169%
13,C=C1CC[C@H](O)C/C1=C/C=C1\CCC[C@]2(C)[C@@H]([C@H](C)CCCC(C)C)CC[C@@H]12 [colecalciferol],169% and 247%
14,CCCCCCCCCC(=O)N[C@H]1[C@H](Oc2c3cc4cc2Oc2ccc(cc2Cl)[C@@H](O[C@@H]2O[C@H](CO)[C@@H](O)[C@H](O)[C@H]2NC(C)=O)[C@@H]2NC(=O)[C@H](NC(=O)[C@@H]4NC(=O)[C@H]4NC(=O)[C@@H](Cc5ccc(c(Cl)c5)O3)NC(=O)[C@H](N)c3ccc(O)c(c3)Oc3cc(O)cc4c3)c3ccc(O)c(c3)-c3c(OC4O[C@H](CO)[C@@H](O)[C@H](O)[C@@H]4O)cc(O)cc3[C@@H](C(=O)O)NC2=O)O[C@H](CO)[C@@H](O)[C@@H]1O (stereo not given in full) [teicoplanin],206%
15,Clc1ccccc1CN1CCc2sccc2C1 [Ticlopidine],282%
16,CC1(C)[C@@H](O)CC[C@]2(C)[C@H]3C(=O)C=C4[C@@H]5C[C@@](C)(C(=O)O)CC[C@]5(C)CC[C@@]4(C)[C@]3(C)CC[C@@H]12,17.3%
17,CCCc1ncc(C[n+]2ccccc2C)c(N)n1 [amprolium],234%
18,COC(=O)C1=C(C)NC(C)=C(C(=O)OCCN2CCN(C(c3ccccc3)c3ccccc3)CC2)C1c1cccc([N+](=O)[O-])c1 (stereo not given) [manidipine],160% and 219%
19,NC[C@H]1CC[C@H](C(=O)O)CC1 [Tranexamic acid],224%
20,COc1cc2c(cc1OC)-c1c/c(=N\c3c(C)cc(C)cc3C)n(C)c(=O)n1CC2 [Trequinsin·HCl],238%
